Reference: the supplement of paper PMC5949888
± gives the standard deviation of the averaged measurements. Most values lie at the floor of the assay. Slopes are relative: functional sequences can read slightly below zero.

What follows are substances tested on Saccharomyces cerevisiae PS128 hsf1 delta, HSF1(1-493) fusion (assay: growth estimate (transactivation domain function in HSF1 fusion, heat-shock survival) (a.u. (slope of normalised read count over time)); higher = stronger growth at 37°C, i.e. more transactivation activity). Conditions: library: random library.
Protocol: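 Random 60-nt DNA library encoding peptides of up to 20 aa, fused to the C-terminus of yeast HSF1 residues 1-493 (C-terminal TAD deleted) and expressed from the native HSF1 promoter on a CEN plasmid in hsf1-deleted S. cerevisiae PS128. Cells were selected at 37°C on -trp 5-FOA plates for 0, 2, 4, 6 and 8 days and amplicons were sequenced. Growth estimate is the slope of a robust linear fit of total-sum-normalised read counts (normalised to the first time point) over time, using at least 2 replicates. Sequences are classed functional (TAD activity) above a threshold of -0.13, set from stop-codon control sequences.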

Row | Substance | growth estimate
1 | FDLPVTLNDFVQNNGGGART | < -0.25
2 | FDLVWTPGALQIRKIFRFAN | < -0.25
3 | FDPGCCSNRGARGHRVHEEG | < -0.25
4 | FDQALLSDITSANHPSSVNP | < -0.25
5 | FDRCVYCTC | < -0.25
6 | FDRRLHEREHPTAHDACVEV | < -0.25
7 | FDSRYEAIALTDPIFRCWTQ | -0.203
8 | FDSSSSFMCVCHRVILRQHP | < -0.25
9 | FDTDCEHSEYVYLGAALF | < -0.25
10 | FDTVLV | < -0.25
11 | FDWM | 10.5
12 | FDYAHSR | < -0.25
13 | FEANILVHQGRG | < -0.25
14 | FECHTVDMSEDRARRK | < -0.25
15 | FEGQEIRVMI | < -0.25
16 | FEIFSESSGRG | -0.221
17 | FEIGERWIEHQPVILGIVLS | < -0.25
18 | FEKLE | < -0.25
19 | FELRNGIKDIKRMWV | < -0.25
20 | FENHTERPVYTVTKAFLLRP | < -0.25
21 | FENKLFL | < -0.25
22 | FEPDLWICPS | -0.194
23 | FEPQSVSRIGH | 0.0525
24 | FEPSHVCSLNTFKDVTGHWI | < -0.25

Row | Substance | growth estimate
25 | FEPSSGA | < -0.25
26 | FERQSGRAPGSRGDPRKSTE | < -0.25
27 | FESLAYTKVFKSLIVYLIPV | < -0.25
28 | FESVRPSGVLSDLGQAGVFV | -0.231
29 | FETLSVELGNLNGVTGATDG | < -0.25
30 | FEYICLL | < -0.25
31 | FFDVASETGS | < -0.25
32 | FFGNAPSARLY | < -0.25
33 | FFSTYRSCAKEVSFFFLQTR | < -0.25
34 | FFTSPDLICPQFAGCPYVPN | -0.245
35 | FFWHERTCL | < -0.25
36 | FGAATLPRRGDCRIDIRGRF | < -0.25
37 | FGARGVGVNVTLGIRLLLRR | < -0.25
38 | FGCN | < -0.25
39 | FGFACLSGMNWP | < -0.25
40 | FGFRVKWKQTWISSGEGNEP | < -0.25
41 | FGGHTRPPYRRADANSG | < -0.25
42 | FGGRVSLNSSCSFQSIAACG | < -0.25
43 | FGGYKASQRGLAIRLLRRGG | < -0.25
44 | FGHDQY | < -0.25
45 | FGIARSTLIRLRL | < -0.25
46 | FGKRPAVPYIALAPDPSAVT | < -0.25
47 | FGLRTDWDGCWNPKVRSPQN | < -0.25
48 | FGLVKAYLGLISRRICKIEW | < -0.25

Row | Substance | growth estimate
49 | FGPKMQQRDIKANLQLVSID | < -0.25
50 | FGPPS | < -0.25
51 | FGQGVQSFCFCGLSRSRSIR | < -0.25
52 | FGRA | < -0.25
53 | FGRLRYIVTEWSVRRWAPVT | < -0.25
54 | FGRQMKIVEDWRIHRQSSQQ | -0.246
55 | FGRVL | < -0.25
56 | FGSLEASDMV | -0.243
57 | FGSLQARPSNQTRQPQP | < -0.25
58 | FGSSWTSSEA | < -0.25
59 | FGSYMAIGDCALRAEERVPT | < -0.25
60 | FGTQVHDDYSAMLGYTWAYT | 2.16
61 | FGVLSAKLLWFVPYSEIVLG | < -0.25
62 | FGYPRSWARLRVLHGLPMDS | < -0.25
63 | FHDSPRPRSLDTETLPGGHV | < -0.25
64 | FHEGL | < -0.25
65 | FHL | < -0.25
66 | FHLVVGRGRPWAVRDRPFP | -0.227
67 | FHNQYKLVV | < -0.25
68 | FHPICAAAVRTR | < -0.25
69 | FHQGLRKCSLMGKRWECGRA | < -0.25
70 | FHSDGAGRVSFCRARGKHWC | < -0.25
71 | FHSIRAGHGEVFPGLVLART | < -0.25
72 | FHSLGYSGVSGVLRR | < -0.25

Row | Substance | growth estimate
73 | FHVARRMGRCGVTVCVKVRL | < -0.25
74 | FHWLDRVRSDATPNVYQSDA | < -0.25
75 | FICPRLNRH | < -0.25
76 | FIEMQCPSGCNGTCGPTAGE | < -0.25
77 | FIFEVRNQWT | < -0.25
78 | FIHIIKNSGDGD | < -0.25
79 | FIHRYYGTVCINTHIDRSSW | < -0.25
80 | FIKVAGGAVVGLSRRSAELH | < -0.25
81 | FIL | < -0.25
82 | FILIVWLSKNADENRVMCQH | -0.181
83 | FIMNGSPVSDYWAEAADSRR | < -0.25
84 | FIPGVK | < -0.25
85 | FIRLSLGGGSSAMWSIRICC | < -0.25
86 | FIRRSGNG | < -0.25
87 | FISGKGHTAWPVNAGGKRVP | < -0.25
88 | FISPRPARRGGYSPNLELPA | < -0.25
89 | FITAARPQGWSI | < -0.25
90 | FITPSGTQRCSSSGVPRKWR | < -0.25
91 | FIVLRPRADLDTAVYRRVWN | < -0.25
92 | FKCACMIEVAADMGKAFVPP | < -0.25
93 | FKDRERKKTQDWGPPLLRRV | < -0.25
94 | FKENRT | -0.245
95 | FKGGRGFL | < -0.25
96 | FKIDSLIIIV | < -0.25

Laid out differently: results already given
Row	Substance	growth estimate
74	FHWLDRVRSDATPNVYQSDA	< -0.25
77	FIFEVRNQWT	< -0.25
82	FILIVWLSKNADENRVMCQH	-0.181
90	FITPSGTQRCSSSGVPRKWR	< -0.25
96	FKIDSLIIIV	< -0.25

Further entries.

Row | Substance | growth estimate
97 | FKKRPSVY | < -0.25
98 | FKMIFRTVEGGDDSVRHQVA | < -0.25
99 | FKPLGQSHERMIFRR | < -0.25
100 | FKR | < -0.25
101 | FKREERVS | < -0.25
102 | FKV | < -0.25
103 | FLCKRGLRPSSLYTSKLYLE | < -0.25
104 | FLEHWQNQTGGF | < -0.25
105 | FLF | < -0.25
106 | FLFAPTLA | -0.243
107 | FLGSPKDDELLSSGHATDSF | < -0.25
108 | FLHITWSAIFRRR | < -0.25
109 | FLHRMS | < -0.25
110 | FLIR | < -0.25
111 | FLKRGC | < -0.25
112 | FLLPDRWRYPIIIELY | < -0.25
113 | FLLRFANEP | < -0.25
114 | FLLSRIGQSGRFTRVRAKC | < -0.25
115 | FLLYSNRGRG | < -0.25
116 | FLPHNGSIVG | < -0.25
117 | FLPWVR | < -0.25
118 | FLRFKSRHMDLIGRDRIGFL | -0.243
119 | FLRLVSALA | < -0.25
120 | FLRVNDLVEAAQRTVCSAGQ | < -0.25

An excerpt of these results, as comma-separated lines.
Row,Substance,growth estimate
39,FGFACLSGMNWP,< -0.25
40,FGFRVKWKQTWISSGEGNEP,< -0.25
41,FGGHTRPPYRRADANSG,< -0.25

Continuation.

Row | Substance | growth estimate
121 | FLSNGLLEEGGFVYNCRHCR | < -0.25
122 | FLSPSPSRTQPAE | -0.245
123 | FLSREVTPRIL | < -0.25
124 | FLSRSALRRSALI | < -0.25
125 | FLSTE | < -0.25
126 | FLSTRFRTL | < -0.25
127 | FLSVIFNKRTRNLFPIMDSI | -0.245
128 | FLT | < -0.25
129 | FLVQSNDTGHYKVALISVPY | < -0.25
130 | FLVRPMYKRRALGRKGLEGL | < -0.25
131 | FMLQSQGKGKGRPGCNYIRL | < -0.25
132 | FMVAHAMPITLGQKEQTFK | < -0.25
133 | FMVCQRCTIPSRPRIFNVVP | < -0.25
134 | FNALLHQRHGYGIIRTADI | < -0.25
135 | FNEIEHWQYNYPKKS | < -0.25
136 | FNGQVKVRGCSLSAPSE | < -0.25
137 | FNGVRGGRGILALQHLGRHN | < -0.25
138 | FNKTSGRLRLLESRRVSRVP | < -0.25
139 | FNLRLRLV | < -0.25
140 | FNSRDWYGDRGQKCRPSPPA | < -0.25
141 | FNTT | < -0.25
142 | FPAASRPGMFD | < -0.25
143 | FPDSTAWTAWWVGQYRTKHA | -0.25
144 | FPFSASLRFIIVEMRGNDAF | < -0.25

Row | Substance | growth estimate
145 | FPGLNLGHLIQSPLGVGN | < -0.25
146 | FPGPLRSCVRWRQ | < -0.25
147 | FPHP | < -0.25
148 | FPL | < -0.25
149 | FPLLASS | < -0.25
150 | FPLRSGI | < -0.25
151 | FPLVGTSRGRLGSVA | < -0.25
152 | FPNDRMIRYGSCGGSPFLSG | < -0.25
153 | FPNQPP | < -0.25
154 | FPPFIP | < -0.25
155 | FPPLNIYISCRFLA | < -0.25
156 | FPRGCWIGCFNHADASELDY | < -0.25
157 | FPRHLRTVGQSVNSTKWIGR | < -0.25
158 | FPRLPIAGAAPMVGGSVGQS | < -0.25
159 | FPRRSDPRG | < -0.25
160 | FPS | -0.248 ± 0.003
161 | FPSRLFKCLSVPGFCRVAIT | < -0.25
162 | FPVEDPVQTR | < -0.25
163 | FPVLLGTGLSYPSCHS | < -0.25
164 | FPVPRLGIPHYQIG | < -0.25
165 | FPYYGLISQAMDGTAMPISN | < -0.25
166 | FQAPTWLEGYTSRSADFYQR | < -0.25
167 | FQFDYSAGPVGESS | < -0.25
168 | FQFRGPALASRAGLMISTLC | < -0.25

Row | Substance | growth estimate
169 | FQGGVLRLVFQALTGLSHTS | < -0.25
170 | FQLASSAMVSDDQIMVEAVK | < -0.25
171 | FQLGTVTRGSDLIGGRRR | < -0.25
172 | FQLPGAM | < -0.25
173 | FQPGSRVDGPVVPENRSTAV | < -0.25
174 | FQR | -0.243
175 | FQSYALSC | < -0.25
176 | FQVRLTSFSVLSWKGRTNDV | < -0.25
177 | FRADRSFLHGVRPRRKARAR | < -0.25
178 | FRAMVRALSLMPCRTVTKAN | < -0.25
179 | FRASGRLRASTLARGAVHLG | < -0.25
180 | FRCQGECVSRPLVATRRVL | < -0.25
181 | FRERCLGLVQSSLWIVKYTD | < -0.25
182 | FRFSGPSNYLTEVISINSGG | < -0.25
183 | FRGEDLMRSIVEF | < -0.25
184 | FRGGVMSVAP | < -0.25
185 | FRGIR | < -0.25
186 | FRGVLGRQPERVSKGKQRRR | < -0.25
187 | FRHFKSRQSEPLLHLSRVGG | < -0.25
188 | FRIRS | < -0.25
189 | FRIRSCVDGYGVDIAMSRKV | < -0.25
190 | FRLF | < -0.25
191 | FRLHGGEAESNVTYVHSMSP | < -0.25
192 | FRLKNLCSNGTVRFIGNSLD | < -0.25
